Results are given in words; binding and its absence hold for the method and conditions named. In cells and extracts the contact can be indirect. Some entries that bind do so weakly or less than the wild type. Tags and fused reporters may be left off the sequences shown. Each block holds one binder with its values, some of them ahead of it.
Experiments:
Assay in all cases: co-IP
[1] = molecular target: T1, HA-IAA9^P188S (Arabidopsis thaliana) (UniProt Q38827)
T1 sequence: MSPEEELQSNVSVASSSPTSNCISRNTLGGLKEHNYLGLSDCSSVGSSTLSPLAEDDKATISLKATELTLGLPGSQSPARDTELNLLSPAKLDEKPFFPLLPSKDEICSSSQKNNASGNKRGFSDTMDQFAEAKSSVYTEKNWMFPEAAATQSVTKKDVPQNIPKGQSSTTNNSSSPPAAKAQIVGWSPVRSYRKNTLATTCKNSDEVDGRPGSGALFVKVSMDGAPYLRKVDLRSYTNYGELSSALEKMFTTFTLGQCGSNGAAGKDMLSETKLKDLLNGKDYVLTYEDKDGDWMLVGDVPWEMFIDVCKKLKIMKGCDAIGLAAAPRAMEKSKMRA

[2] = molecular target: T2, Myc-MED8 (Mediator 8) (Arabidopsis thaliana) (UniProt Q4V3C1)
T2 sequence: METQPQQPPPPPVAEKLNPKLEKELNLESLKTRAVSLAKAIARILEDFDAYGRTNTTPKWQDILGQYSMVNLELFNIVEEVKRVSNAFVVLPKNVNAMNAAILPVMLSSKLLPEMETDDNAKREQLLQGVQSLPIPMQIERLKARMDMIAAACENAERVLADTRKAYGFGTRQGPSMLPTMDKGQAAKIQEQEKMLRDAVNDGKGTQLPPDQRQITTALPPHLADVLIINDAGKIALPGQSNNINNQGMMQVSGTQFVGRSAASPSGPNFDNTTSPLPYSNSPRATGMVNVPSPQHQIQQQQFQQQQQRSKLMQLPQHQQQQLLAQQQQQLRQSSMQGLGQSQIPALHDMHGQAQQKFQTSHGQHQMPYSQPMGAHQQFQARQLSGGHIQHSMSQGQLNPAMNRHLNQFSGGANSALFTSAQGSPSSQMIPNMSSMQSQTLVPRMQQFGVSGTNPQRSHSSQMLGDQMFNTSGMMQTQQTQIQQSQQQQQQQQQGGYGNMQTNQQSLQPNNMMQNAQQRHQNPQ

[3] = molecular target: T3, MED8-GFP from transgenic Arabidopsis (35S:MED8-GFP) (Arabidopsis thaliana) (UniProt Q4V3C1)
T3 sequence: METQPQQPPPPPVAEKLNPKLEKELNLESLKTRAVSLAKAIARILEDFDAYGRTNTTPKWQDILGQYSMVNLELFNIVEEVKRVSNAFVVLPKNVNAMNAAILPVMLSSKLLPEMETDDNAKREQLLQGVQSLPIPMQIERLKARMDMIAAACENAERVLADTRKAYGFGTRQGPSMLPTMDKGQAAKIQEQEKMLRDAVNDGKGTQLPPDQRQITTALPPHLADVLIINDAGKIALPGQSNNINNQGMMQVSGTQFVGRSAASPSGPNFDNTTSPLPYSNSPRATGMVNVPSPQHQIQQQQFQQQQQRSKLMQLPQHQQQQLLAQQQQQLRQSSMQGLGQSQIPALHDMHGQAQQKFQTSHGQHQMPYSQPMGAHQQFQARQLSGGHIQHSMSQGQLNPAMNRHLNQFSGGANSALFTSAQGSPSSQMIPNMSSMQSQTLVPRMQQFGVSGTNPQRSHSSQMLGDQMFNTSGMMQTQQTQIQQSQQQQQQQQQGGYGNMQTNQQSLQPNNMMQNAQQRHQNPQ

[4] = molecular target: T4, FLAG-ARF6 (AUXIN RESPONSE FACTOR6), transiently expressed in N. benthamiana (Arabidopsis thaliana) (UniProt Q9ZTX8)
T4 sequence: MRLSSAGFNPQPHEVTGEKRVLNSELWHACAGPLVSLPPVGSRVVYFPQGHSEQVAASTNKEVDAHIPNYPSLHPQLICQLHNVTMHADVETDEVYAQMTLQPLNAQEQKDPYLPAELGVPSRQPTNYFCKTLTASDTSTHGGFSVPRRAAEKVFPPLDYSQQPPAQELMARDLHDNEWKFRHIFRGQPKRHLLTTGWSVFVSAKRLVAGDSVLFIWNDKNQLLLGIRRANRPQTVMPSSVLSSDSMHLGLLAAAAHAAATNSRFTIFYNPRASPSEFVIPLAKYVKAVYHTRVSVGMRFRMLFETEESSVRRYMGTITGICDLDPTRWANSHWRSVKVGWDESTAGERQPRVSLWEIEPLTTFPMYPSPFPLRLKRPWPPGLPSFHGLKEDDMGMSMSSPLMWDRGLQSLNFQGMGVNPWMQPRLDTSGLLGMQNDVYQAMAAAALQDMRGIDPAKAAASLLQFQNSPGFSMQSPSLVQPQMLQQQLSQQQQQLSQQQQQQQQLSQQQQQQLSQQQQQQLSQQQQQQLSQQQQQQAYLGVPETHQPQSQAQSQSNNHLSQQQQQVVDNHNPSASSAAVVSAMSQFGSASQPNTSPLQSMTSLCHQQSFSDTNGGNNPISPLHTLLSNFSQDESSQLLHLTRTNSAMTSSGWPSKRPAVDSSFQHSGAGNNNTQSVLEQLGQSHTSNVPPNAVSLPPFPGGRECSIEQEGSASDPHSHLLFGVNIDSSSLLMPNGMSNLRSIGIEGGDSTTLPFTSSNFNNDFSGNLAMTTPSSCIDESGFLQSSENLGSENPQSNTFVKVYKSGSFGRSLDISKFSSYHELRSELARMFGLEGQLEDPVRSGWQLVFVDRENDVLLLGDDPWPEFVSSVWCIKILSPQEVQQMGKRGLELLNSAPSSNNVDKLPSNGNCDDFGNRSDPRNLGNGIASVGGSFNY

binding [1]: binds | binding [2]: binds
B1: FLAG-ARF6 (AUXIN RESPONSE FACTOR6), transiently expressed in N. benthamiana (protein, UniProt Q9ZTX8 1-935)
chain: MRLSSAGFNPQPHEVTGEKRVLNSELWHACAGPLVSLPPVGSRVVYFPQGHSEQVAASTNKEVDAHIPNYPSLHPQLICQLHNVTMHADVETDEVYAQMTLQPLNAQEQKDPYLPAELGVPSRQPTNYFCKTLTASDTSTHGGFSVPRRAAEKVFPPLDYSQQPPAQELMARDLHDNEWKFRHIFRGQPKRHLLTTGWSVFVSAKRLVAGDSVLFIWNDKNQLLLGIRRANRPQTVMPSSVLSSDSMHLGLLAAAAHAAATNSRFTIFYNPRASPSEFVIPLAKYVKAVYHTRVSVGMRFRMLFETEESSVRRYMGTITGICDLDPTRWANSHWRSVKVGWDESTAGERQPRVSLWEIEPLTTFPMYPSPFPLRLKRPWPPGLPSFHGLKEDDMGMSMSSPLMWDRGLQSLNFQGMGVNPWMQPRLDTSGLLGMQNDVYQAMAAAALQDMRGIDPAKAAASLLQFQNSPGFSMQSPSLVQPQMLQQQLSQQQQQLSQQQQQQQQLSQQQQQQLSQQQQQQLSQQQQQQLSQQQQQQAYLGVPETHQPQSQAQSQSNNHLSQQQQQVVDNHNPSASSAAVVSAMSQFGSASQPNTSPLQSMTSLCHQQSFSDTNGGNNPISPLHTLLSNFSQDESSQLLHLTRTNSAMTSSGWPSKRPAVDSSFQHSGAGNNNTQSVLEQLGQSHTSNVPPNAVSLPPFPGGRECSIEQEGSASDPHSHLLFGVNIDSSSLLMPNGMSNLRSIGIEGGDSTTLPFTSSNFNNDFSGNLAMTTPSSCIDESGFLQSSENLGSENPQSNTFVKVYKSGSFGRSLDISKFSSYHELRSELARMFGLEGQLEDPVRSGWQLVFVDRENDVLLLGDDPWPEFVSSVWCIKILSPQEVQQMGKRGLELLNSAPSSNNVDKLPSNGNCDDFGNRSDPRNLGNGIASVGGSFNY

binding [3]: binds
B2: FLAG-ARF6 from transgenic Arabidopsis (P_UBQ10:FLAG-ARF6) (protein, UniProt Q9ZTX8 1-935)
chain: MRLSSAGFNPQPHEVTGEKRVLNSELWHACAGPLVSLPPVGSRVVYFPQGHSEQVAASTNKEVDAHIPNYPSLHPQLICQLHNVTMHADVETDEVYAQMTLQPLNAQEQKDPYLPAELGVPSRQPTNYFCKTLTASDTSTHGGFSVPRRAAEKVFPPLDYSQQPPAQELMARDLHDNEWKFRHIFRGQPKRHLLTTGWSVFVSAKRLVAGDSVLFIWNDKNQLLLGIRRANRPQTVMPSSVLSSDSMHLGLLAAAAHAAATNSRFTIFYNPRASPSEFVIPLAKYVKAVYHTRVSVGMRFRMLFETEESSVRRYMGTITGICDLDPTRWANSHWRSVKVGWDESTAGERQPRVSLWEIEPLTTFPMYPSPFPLRLKRPWPPGLPSFHGLKEDDMGMSMSSPLMWDRGLQSLNFQGMGVNPWMQPRLDTSGLLGMQNDVYQAMAAAALQDMRGIDPAKAAASLLQFQNSPGFSMQSPSLVQPQMLQQQLSQQQQQLSQQQQQQQQLSQQQQQQLSQQQQQQLSQQQQQQLSQQQQQQAYLGVPETHQPQSQAQSQSNNHLSQQQQQVVDNHNPSASSAAVVSAMSQFGSASQPNTSPLQSMTSLCHQQSFSDTNGGNNPISPLHTLLSNFSQDESSQLLHLTRTNSAMTSSGWPSKRPAVDSSFQHSGAGNNNTQSVLEQLGQSHTSNVPPNAVSLPPFPGGRECSIEQEGSASDPHSHLLFGVNIDSSSLLMPNGMSNLRSIGIEGGDSTTLPFTSSNFNNDFSGNLAMTTPSSCIDESGFLQSSENLGSENPQSNTFVKVYKSGSFGRSLDISKFSSYHELRSELARMFGLEGQLEDPVRSGWQLVFVDRENDVLLLGDDPWPEFVSSVWCIKILSPQEVQQMGKRGLELLNSAPSSNNVDKLPSNGNCDDFGNRSDPRNLGNGIASVGGSFNY

binding [4]: binds
B3: Myc-ARF8 (AUXIN RESPONSE FACTOR8) (protein, UniProt Q9FGV1 1-811)
chain: MKLSTSGLGQQGHEGEKCLNSELWHACAGPLVSLPSSGSRVVYFPQGHSEQVAATTNKEVDGHIPNYPSLPPQLICQLHNVTMHADVETDEVYAQMTLQPLTPEEQKETFVPIELGIPSKQPSNYFCKTLTASDTSTHGGFSVPRRAAEKVFPPLDYTLQPPAQELIARDLHDVEWKFRHIFRGQPKRHLLTTGWSVFVSAKRLVAGDSVIFIRNEKNQLFLGIRHATRPQTIVPSSVLSSDSMHIGLLAAAAHASATNSCFTVFFHPRASQSEFVIQLSKYIKAVFHTRISVGMRFRMLFETEESSVRRYMGTITGISDLDSVRWPNSHWRSVKVGWDESTAGERQPRVSLWEIEPLTTFPMYPSLFPLRLKRPWHAGTSSLPDGRGDLGSGLTWLRGGGGEQQGLLPLNYPSVGLFPWMQQRLDLSQMGTDNNQQYQAMLAAGLQNIGGGDPLRQQFVQLQEPHHQYLQQSASHNSDLMLQQQQQQQASRHLMHAQTQIMSENLPQQNMRQEVSNQPAGQQQQLQQPDQNAYLNAFKMQNGHLQQWQQQSEMPSPSFMKSDFTDSSNKFATTASPASGDGNLLNFSITGQSVLPEQLTTEGWSPKASNTFSEPLSLPQAYPGKSLALEPGNPQNPSLFGVDPDSGLFLPSTVPRFASSSGDAEASPMSLTDSGFQNSLYSCMQDTTHELLHGAGQINSSNQTKNFVKVYKSGSVGRSLDISRFSSYHELREELGKMFAIEGLLEDPLRSGWQLVFVDKENDILLLGDDPWESFVNNVWYIKILSPEDVHQMGDHGEGSGGLFPQNPTHL
